Results from PMC6953771.
No constants are given. Whether binding was seen depends on the method and setting. In cells and extracts the contact can be indirect. Some entries that bind do so weakly or less than the wild type.

Target: hnRNP-K (human (endogenous in LoVo and HT-29)) (UniProt P61978)
Assay: co-IP; LoVo and HT-29 cell lysates (50 mmol/L Tris-HCl pH 7.5, 150 mmol/L NaCl, 0.2% Nonidet P-40, 5% glycerol, 1% Tween 20) incubated with hnRNP-K antibody (ab52600) at 4°C for 3 h, protein A/G Sepharose overnight, western blot; cells with shLINC01413, pGIPZ/LINC01413, pGIPZ/hnRNP-K or sh-hnRNP-K

Substance	binding
TAZ1 (from UniProt Q9GZV5 1-400)	binds
YAP1 (yes-associated protein 1) (from UniProt P46937 1-504)	binds
